Assay results published in paper PMC3548902.
These are yes or no findings as the source states them, for the method shown. In cells and extracts the contact can be indirect. Some binding calls cover weakened binding; strength is not graded here. Where a sequence is shown, tags or fusion partners need not be part of it.

Target: T1, flag-tagged full-length Vascular Adhesion Protein-1 (VAP-1) (human) (UniProt Q16853)
T1 sequence: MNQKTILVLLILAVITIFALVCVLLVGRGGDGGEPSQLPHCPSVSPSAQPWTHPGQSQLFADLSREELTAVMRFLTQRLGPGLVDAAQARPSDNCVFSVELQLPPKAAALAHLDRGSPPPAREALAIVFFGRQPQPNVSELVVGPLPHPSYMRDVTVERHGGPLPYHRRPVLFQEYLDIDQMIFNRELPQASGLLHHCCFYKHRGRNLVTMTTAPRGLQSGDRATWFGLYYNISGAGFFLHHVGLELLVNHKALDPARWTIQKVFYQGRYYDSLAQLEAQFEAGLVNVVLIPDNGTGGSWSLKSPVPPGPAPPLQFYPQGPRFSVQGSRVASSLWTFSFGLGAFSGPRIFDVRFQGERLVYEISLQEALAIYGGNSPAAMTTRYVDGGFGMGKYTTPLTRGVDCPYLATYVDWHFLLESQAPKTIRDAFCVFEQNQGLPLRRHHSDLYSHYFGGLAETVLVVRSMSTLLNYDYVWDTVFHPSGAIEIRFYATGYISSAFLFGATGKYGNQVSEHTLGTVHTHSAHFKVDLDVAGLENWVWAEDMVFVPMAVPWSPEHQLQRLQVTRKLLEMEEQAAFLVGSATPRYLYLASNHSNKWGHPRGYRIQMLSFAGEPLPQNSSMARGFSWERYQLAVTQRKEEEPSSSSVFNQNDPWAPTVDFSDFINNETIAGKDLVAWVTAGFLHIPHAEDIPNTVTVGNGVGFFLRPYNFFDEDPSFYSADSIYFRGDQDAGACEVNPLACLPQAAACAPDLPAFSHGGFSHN
Experiment: co-IP; HEK293 cells co-transfected with flag-VAP-1 and myc-VAP-1Δ3; lysis buffer 50 mM Tris-HCl, 150 mM NaCl, 1% Nonidet P-40; precipitated with anti-flag mAb M2 on Protein G beads, 1 h at +4°C; blotted with anti-myc

- binding: binds
B1: myc-tagged VAP-1Δ3 (alternatively spliced shorter isoform of VAP-1 lacking exon 3) (protein, UniProt Q16853-2 1-634)
chain: MNQKTILVLLILAVITIFALVCVLLVGRGGDGGEPSQLPHCPSVSPSAQPWTHPGQSQLFADLSREELTAVMRFLTQRLGPGLVDAAQARPSDNCVFSVELQLPPKAAALAHLDRGSPPPAREALAIVFFGRQPQPNVSELVVGPLPHPSYMRDVTVERHGGPLPYHRRPVLFQEYLDIDQMIFNRELPQASGLLHHCCFYKHRGRNLVTMTTAPRGLQSGDRATWFGLYYNISGAGFFLHHVGLELLVNHKALDPARWTIQKVFYQGRYYDSLAQLEAQFEAGLVNVVLIPDNGTGGSWSLKSPVPPGPAPPLQFYPQGPRFSVQGSRVASSLWTFSFGLGAFSGPRIFDVRFQGERLVYEISLQEALAIYGGNSPAAMTTRYVDGGFGMGKYTTPLTRGVDCPYLATYVDWHFLLESQAPKTIRDAFCVFEQNQGLPLRRHHSDLYSHYFGGLAETVLVVRSMSTLLNYDYVWDTVFHPSGAIEIRFYATGYISSAFLFGATGKYGNQVSEHTLGTVHTHSAHFKVDLDVAGLENWVWAEDMVFVPMAVPWSPEHQLQRLQVTRKLLEMEEQAAFLVGSATPRYLYLASNHSNKWGHPRGYRIQMLSFAGEPLPQNSSMARGFSWERIWWPG
